This is one part of the list. Shown are side measurements of this screen, not its main read-out; they come without a call. Compounds called inactive in the main read-out are mostly missing here. Potencies come from curve fits of mixed quality, noted in brackets.
Test: qHTS Assay to Find Inhibitors of Chronic Active B-Cell Receptor Signaling
Conditions: ABC-DLBCL IkBa-CBG/CBR reporter, luminescence ratio (green luciferase fused to IkBa over red control in TMD8 lymphoma cells), 4 h
How it was run: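 TMD8 human ABC-DLBCL cells with doxycycline-inducible IκBα–green luciferase fusion and unfused red luciferase, in 0.5% FBS medium; compounds up to 46 uM, 4 h at 37C. Green/red luminescence ratio, filter-overlap corrected, fitted to concentration-response curves.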

[1] = measured here: CBR red luminescence, cell number
[2] = measured here: IkBa-CBG green luminescence

| Compound | AC50 [1] | AC50 [2] |
| --- | --- | --- |
| COc1ccc2sc(N3C(=O)C4CC=C(C)CC4C3=O)nc2c1 (stereo not given) | 25.9 µM [falling, single point] | – |
| Cc1ccc(NC(=O)C/C(N)=N/OC(=O)Nc2cccc(Cl)c2)cc1 | 23.1 µM [rising, single point] | – |
| COc1ccc(NC(=O)CNS(=O)(=O)c2cccs2)cc1 | 13 µM [rising, partial curve, poor fit] | – |
| Cn1c(=O)c([N+](=O)[O-])c(-n2ccnc2)c2ccccc21 | 14.1 µM [falling, partial curve] | – |
| Cc1noc(C)c1COC(=O)c1ccc2c(c1)S(=O)(=O)c1ccccc1C2=O | 17.8 µM [rising, partial curve, poor fit] | – |
| COc1cc(NC(=S)NC2CC(C)(C)NC(C)(C)C2)c(OC)cc1Cl | 11.2 µM [falling, partial curve] | – |
| Clc1ccc(-c2nnc(CSc3nnc(-c4cccs4)n3Cc3ccccc3)o2)cc1 | 18.4 µM [falling, partial curve, poor fit] | – |
| COC(=O)c1ccc(NC(=O)CN(c2ccc3c(c2)OCO3)S(C)(=O)=O)cc1 | 4.11 µM [rising, partial curve, poor fit] | – |
| CC1(C)COC(c2cccn2Cc2ccc(F)cc2Cl)=N1 | 6.31 µM [falling, single point] | – |
| COc1ccc(/C(O)=C/C(=O)C(=O)NNC(=O)c2ccccc2)cc1 | 35.5 µM [falling, single point] | – |
| CC(=O)Nc1ccc(C(=O)OCC(=O)N2CCCC2)cc1 | 17.8 µM [rising, single point] | – |
| O=C(N/N=C/c1c[nH]c2ccc(Br)cc12)c1ccncc1 | 29.1 µM [falling, single point] | – |
| COc1ccc(CN2C(=O)c3ccccc3C(/C=N\OCc3ccc(C)cc3)C2=O)cc1 (stereo not given) | 0.1 µM [falling, full curve, poor fit] | – |
| COc1ccc(-c2nc(CS(=O)(=O)CC(=O)NCCc3ccccc3)c(C)o2)cc1 | 35.5 µM [rising, single point] | – |
| [O-][n+]1c2ccccc2cc2ccccc21 | 20.6 µM [falling, partial curve] | – |
| CS(=O)(=O)c1cccc(C(=O)OCC(=O)Nc2ccc3c(c2)OCO3)c1 | 29.1 µM [rising, single point] | – |
| Cc1ccc(S(=O)(=O)N2CCCC2CNC(=O)C(=O)Nc2ccc(F)cc2)cc1 (stereo not given) | 13 µM [falling, partial curve] | – |
| CC(C)NC(=NCc1ccc(Cl)cc1Cl)Nc1ccccc1 | 17.8 µM [falling, partial curve] | – |
| Cc1ccc(CCCOC(=O)C[N+]2(C)CCCC2)cc1 | 13 µM [rising, partial curve, poor fit] | – |
| COCc1ccc(-c2c(-c3ccc(OC)cc3)oc(=O)c3cc(OC)c(OC)cc23)cc1 | 3.26 µM [rising, full curve] | – |
| CC(C)C1=CC(=Nc2ccc(S(N)(=O)=O)cc2)C=C(C(C)C)C1=O | – | 17.8 µM [falling, single point] |
| COC(=O)c1sc(-c2cccs2)cc1NC(=O)/C=C/C(=O)O | 10 µM [falling, partial curve, poor fit] | – |

| Compound | AC50 [1] | AC50 [2] |
| --- | --- | --- |
| CC(=O)c1noc(C)c1C(=O)Nc1nccs1 | 0.58 µM [falling, full curve, poor fit] | – |
| CCOC(=O)C1=C(CNCCc2ccc(Cl)cc2)NC(=O)NC1c1ccc2c(c1)OCO2 (stereo not given) | 25.9 µM [falling, single point] | – |
| O=C1c2ccccc2-c2nnc(-c3ccc(O)cc3)cc21 | 6.31 µM [falling, partial curve] | – |
| COc1cc(OC)c2c(-c3cccc(/C=C/c4ccc(F)cc4)c3)cc(=O)oc2c1 | 5.8 µM [rising, full curve] | – |
| Cc1cc(O)c(-c2cc(O)c(C)cc2O)cc1O | 15.8 µM [falling, single point] | – |
| C/C(Cn1nnc([N+](=O)[O-])n1)=N\NC(=O)c1ccccc1O | 2.51 µM [falling, partial curve] | – |
| O=C(OCCOc1cccc(Cl)c1)c1ccc2ncsc2c1 | 12.6 µM [falling, partial curve] | – |
| CCN(CC)CCn1c2c(c(SCC(=O)Nc3ccc4c(c3)OCCO4)nc1=O)CCCC2 | 16.4 µM [falling, single point] | – |
| C/C(=N\NC(=O)c1ccc(CSc2nncn2C)cc1)c1ccc2ccccc2c1 | 4.11 µM [rising, full curve, poor fit] | – |
| COc1ccc(N2CCN(C(=O)CCCN3C(=O)c4cccc5cccc(c45)C3=O)CC2)cc1 | 8.91 µM [rising, partial curve] | – |
| CC(=O)Nc1cccc(-c2nc3ccccc3c(=O)o2)c1 | 10.3 µM [falling, partial curve] | – |
| CCn1nc(C)c(C(=O)Nc2cc(Oc3cc(C)cc(C)c3)cc([N+](=O)[O-])c2)c1C | 35.5 µM [falling, single point] | – |
| Cc1ccc(CSc2ncnc3onc(C)c23)cc1 | 22.4 µM [rising, single point] | – |
| Cc1nc(NCCc2ccc(F)cc2)c2nnn(Cc3ccccc3)c2n1 | 7.08 µM [falling, partial curve, poor fit] | – |
| O=C1CCCC(O)=C1N=Nc1c(Cl)cc(Cl)cc1Cl | 20.6 µM [rising, partial curve, poor fit] | – |
| O=C(CNC(=O)c1ccco1)OCc1cccc(Cl)c1 | 14.1 µM [rising, partial curve, poor fit] | – |
| CCOC(=O)C(=Cc1c[nH]c2ccc(S(=O)(=O)N(C)C)cc12)C(=O)OCC | 8.91 µM [falling, partial curve] | – |
| CCCCCCn1c(=O)[nH]c2nc3cc(N)ccc3nc2c1=O | 16.4 µM [falling, single point] | – |
| CCc1c(C)nc(SCC(=O)NNC(=O)Cc2ccc(OC)cc2)[nH]c1=O | 11.2 µM [falling, single point] | – |
| O=C(NN1C(=O)C2C3C=CC(C4CC34)C2C1=O)c1ccccc1Cl (stereo not given) | 18.4 µM [falling, single point] | – |
| CN(C)N1C(N)=C(C#N)C(c2cccc(Cl)c2)C2=C1CCCC2=O (stereo not given) | 12.6 µM [falling, partial curve] | – |
| CC1(C)C2CC=C(/C=N/NC(=O)c3ccc(O)cc3)C1C2 (stereo not given) | 9.2 µM [falling, partial curve] | – |

| Compound | AC50 [1] | AC50 [2] |
| --- | --- | --- |
| CCOc1ccc(S(=O)(=O)N(CC(=O)NN=C2CCN(C)CC2)c2ccc(C)cc2)cc1 | 17.8 µM [rising, single point] | 35.5 µM [falling, partial curve, poor fit] |
| Cc1nn(-c2ccccc2)c(Cl)c1/C=N\NC(=O)c1cncc(Br)c1 | 0.58 µM [falling, full curve, poor fit] | – |
| CCCc1noc2c1/C(=N\O)CCC2 | 12.6 µM [rising, partial curve] | – |
| c1ccc(-c2c3ccccc3nc3[nH]c4ccccc4c23)cc1 | – | 0.231 µM [rising, full curve, poor fit] |
| Cc1ccc(C2C3=C(CCCC3=O)N=C3c4ccccc4C(=O)C32)cc1 (stereo not given) | 3.66 µM [rising, partial curve, poor fit] | – |
| CN(c1ccccc1)c1ccc(/C=N/N2CCOCC2)cc1 | 16.4 µM [rising, partial curve, poor fit] | – |
| COc1ccc(NC(=O)Cn2nnc(C(N)=O)c2N)c(OC)c1 | 10 µM [falling, partial curve, poor fit] | – |
| Cc1ccc(-n2ncc(Cl)c2C(=O)NCc2ccccc2)cc1 | 0.501 µM [rising, full curve, poor fit] | – |
| O=C(N/N=C/c1ccc[nH]1)c1cc(-c2cccs2)nc2ccccc12 | 35.5 µM [rising, single point] | – |
| COc1ccc(C(=O)C[n+]2cn(C(F)F)c3ccccc32)c(F)c1 | 25.1 µM [falling, single point] | – |
| C=CCn1c(NCc2ccc3c(c2)OCO3)nc2ccccc21 | 0.398 µM [falling, full curve] | – |
| Cc1nc2ccc(-c3ccccc3)cc2o1 | 7.94 µM [rising, partial curve, poor fit] | – |
| CC(C)(C)OC(=O)N1CCC[C@H]1c1nnc(SCc2c(Cl)cccc2Cl)o1 | 4.47 µM [rising, full curve] | – |
| CC1=CC(=O)C(C(C)C)=C/C1=N/OC(=O)c1cccc([N+](=O)[O-])c1 | 9.2 µM [falling, partial curve, poor fit] | – |
| CCOc1ccc(CCNC(=O)c2ccc3c(c2)N(Cc2cccc(Cl)c2)C(=O)c2ccccc2S3(=O)=O)cc1OCC | 17.8 µM [rising, single point] | – |
| Cn1cc([N+](=O)[O-])c(C(=O)Nc2nccs2)n1 | 8.91 µM [falling, partial curve, poor fit] | – |
| CCCNC(=O)OC[C@H]1O[C@H](CCO/N=C(\C)CCN2CCc3nc(-c4ccccc4)c(-c4ccccc4)cc3C2)C=C[C@@H]1Oc1ccc(OC)cc1 | 0.461 µM [rising, full curve, poor fit] | – |
| Cc1ccc(C(c2nnnn2C(C)(C)C)N2CCc3ccccc3C2)cc1 (stereo not given) | 29.1 µM [falling, partial curve, poor fit] | – |
| CC(C)(C)c1ccc(C(=O)Nc2ccc([N+](=O)[O-])cn2)cc1 | 2.31 µM [rising, partial curve, poor fit] | – |
| CC(C)c1nnc(NC(=O)c2nc(S(=O)(=O)Cc3ccccc3)ncc2Cl)s1 | 35.5 µM [falling, single point] | – |

Complete entries from above.
c1ccc(-c2c3ccccc3nc3[nH]c4ccccc4c23)cc1 is listed with AC50 [2]: 0.231 µM [rising, full curve, poor fit]
CCCNC(=O)OC[C@H]1O[C@H](CCO/N=C(\C)CCN2CCc3nc(-c4ccccc4)c(-c4ccccc4)cc3C2)C=C[C@@H]1Oc1ccc(OC)cc1 is listed with AC50 [1]: 0.461 µM [rising, full curve, poor fit]
CCCc1noc2c1/C(=N\O)CCC2 is listed with AC50 [1]: 12.6 µM [rising, partial curve]
COc1ccc(C(=O)C[n+]2cn(C(F)F)c3ccccc32)c(F)c1 is listed with AC50 [1]: 25.1 µM [falling, single point]

From PubChem BioAssay AID493014 (National Center for Advancing Translational Sciences (NCATS), 2011)
